From patent US7268108B2, “Alpha-melanocyte stimulating hormone derivatives and cosmetic application thereof” (Institut European de Biologie Cellulaire, priority 2002, dated 2007)
At least one peptide structure holds a part that was inferred or is arguable (an end, a ring closure or a residue). Marks after values point to notes of the source that are not given here. Where a SMILES comes first, the peptide text is derived from it. [ ]: non-standard residue; d: D form. Nle = CCCC[C@H](N)C(=O)O

Tests used:
[1] = tested on: IL-1α; assay: release of IL-1α by SDS-stimulated NCTC2544 keratinocytes (ELISA); type: cell-based, human
[2] = tested on: photo-induced erythema; assay: photo-induced erythema in vivo in humans (MED); conditions: treated region, gel topical twice/day for 2 weeks, control region 1.5
[3] = tested on: IL-8; assay: IL-8 assay in SAEC cells, and in monocytes and polynuclear neutrophils from cortico-dependant asthma patients, compared with dexamethasone; type: cell-based, human; conditions: peptide 10^−5/10^−6 M to 10^−8 M versus dexamethasone 10^−7 M, 24 h
[4] = tested on: cutaneous melanogenesis; assay: double-blind study of melanostimulant effects by topical administration in humans; type: in vivo; conditions: gel at 10 ppm, topical twice a day for 3 weeks
Protocol: 2. A double-blind study of the melanostimulant effects by topical administration of peptide no. 1 in the table was carried out in humans.
A gel of peptide no. 1 at 10 ppm and its placebo were applied, twice a day for 3 weeks, to the inner face of the forearms of twelve normal volunteers who had given their informed consent. Since the arms were not exposed to the sun, they were given an exactly calibrated artificial solar exposure of 0.6 MED (minimum erythema dose) once a day from the 16th to 20th day.
24 h after the final treatment, a clinical evaluation of the treated regions was carried out blind, and the intensity of coloration was marked according to a five-level index scale. A biopsy sample was then taken in order to quantify the melanin produced and to evaluate the ultrastructural consequences of the treatment.
The quantification of the epidermal melanin was carried out on histological sections by image analysis after labeling with AgNO3. Only the active layers of the epidermis were analyzed (from the stratum germinativum to the stratum spinosum), using the Leica Quantimet after digitization (Sony CCD camera).
The ultrastructural analysis of the melanocytes and melanosomes was carried out by electron microscopy. A double-contrast technique was used on the thin sections, which were then observed at magnifications ranging up to ×12000 (Jeol 1200EX).

For CCCC[C@H](NC(C)=O)C(=O)N[C@@H](C)C(=O)N[C@@H](Cc1c[nH]cn1)C(=O)N[C@H](Cc1ccccc1)C(=O)N[C@@H](CCCNC(=N)N)C(=O)N[C@@H](Cc1c[nH]c2ccccc12)C(N)=O [Compound 1, Ac-Nle-Ala-His-DPhe-Arg-Trp-NH2] (Ac-[Nle]AH[dF]RW-NH2), the “extracellular IL-1α” value ([1]; peptide at 10^−6 M for 72 h, then SDS 85 mg/l for 24 h, controls 38) was 22 Pg of IL-1α/10^9 cells, the “reduction of the expression of IL-1α” value ([1]; peptide at 10^−6 M, SDS-stressed keratinocytes, versus controls) was “approximately 42%” and the “MED after exposure to UV A & B” value ([2]; 24 h after exposure, p<0.05) was 1.8* J/cm^2. The “MED after exposure to UV A & B” value ([2]; 72 h after exposure) was 1.7 J/cm^2, the “activity relative to that of dexamethasone” value [3] was 10 times and the “increase in the browning of the skin (tanning) compared to the placebo” value ([4]; forearm, 0.6 MED once a day from day 16 to 20, p<0.05) was 54%. The “increase in the amount of melanin in the epidermis compared to the placebo” value ([4]; image analysis after AgNO3 labeling, p<0.01) was 68%.
